Experimental data published in the supplement of paper PMC6445147.
This is a noisy data set.

B1: human tRNA-Pro; a variant is named by its letters at N, in order (parent)
chain: GGCTCGTTGGTCTAGNGGTATGATTCTCGCTTAGGGTGCGAGAGGTCCCGGGTTCNNATCCCGGACGAGCCC

Variants of: B1
Experiment: tRNA 5' processing efficiency (processed reads / all reads, maximum-likelihood estimate) (fraction); higher = more efficient 5' processing
Conditions: HEK293T; construct: CMV Pol-II promoter ((+)CMV library, decapped)

| Variant | tRNA 5' processing efficiency |
| --- | --- |
| GGCTCGTTGGTCTAGGTGTTTGATTCTCGCTTAGGGTGCGAGAGGTCCCGGGGTCTAATCCCGGACGAGCCC [GTA G17T A20T T53G] | 0.14 |
| GGCTCGTTGGTCTAGTTCTATGATTCTCGCTTAGGGTGCGAGAGGTCCCGGGTTCTAATCCCGGACGAGCCC [TTA G17T G18C] | 0.2 |
| GGCTCGTTGGTCTAAGTGTTTGATTCTCGCTTAGGGTGCGAGAGGTCCCGGGGTCTAGTCCCGGACGAGCCC [GTA G15A G17T A20T T53G A58G] | 0.25 |
| GGCTCGTTTGTCTCAGAGTATGATTCTCGCTTAGGGTGCGAGAGGTCCCGGGTTCGTAACCCGGACGAGCCC [GGT G9T A14C G15A G17A T59A] | 0.33 |
| GGCTCGTTGGTCTAGGGGTATGATTCTCGCTTAGGGTGCGAGAGGTCCCGGGTGCGTATCCCGGACGAGCCC [GGT T54G] | 0.33 |
| GGCTCGTTGGTCTAAGGGTATGATTCTCGCTTAGGGTGCGAGAGGTCCCGGGTTATAGTCCCGGACGAGCCC [GTA G15A C55A A58G] | 0.25 |
| GGCTCGTTTGTCTTGGGGTATGATTCTCGCTTAGGGTGCGAGAGGTCCCGGGTTAGGATCCCGGACGAGCCC [GGG G9T A14T C55A] | 0.4 |
| GGCTCGTTGGTCTAGCGTTATGATTCTCGCTTAGGGTGCGAGAGGTCCCGGGCTTGGGTCCCGGACGAGCCC [CGG G18T T53C C55T A58G] | 0.25 |
| GGCTCGTTGGTCTAGGGATATGATTCTCGCTTAGGGTGCGAGAGGTCCCGGGTTCTAAGCCCGGACGAGCCC [GTA G18A T59G] | 0.2 |
| GGCTCGTTGGTCTAGGTGGATGATTCTCGCTTAGGGTGCGAGAGGTCCCGGGTTCTATTCCCGGACGAGCCC [GTA G17T T19G A58T] | 0.07 |
| GGCTCGTTGGTCTAGGAGCATGATTCTCGCTTAGGGTGCGAGAGGTCCCGGGTTGTAATCCCGGACGAGCCC [GTA G17A T19C C55G] | 0.25 |
| GGCTCGTTGGTCTAGGGGTTTGATTCTCGCTTAGGGTGCGAGAGGTCCCGGGTTTTAAGCCCGGACGAGCCC [GTA A20T C55T T59G] | 0.29 |
| GGCTCGTTGGTCTTGGGTTATGATTCTCGCTTAGGGTGCGAGAGGTCCCGGGTTGTAATCCCGGACGAGCCC [GTA A14T G18T C55G] | 0.33 |
| GGCTCGTTGGTCTACGGATATGATTCTCGCTTAGGGTGCGAGAGGTCCCGGGTTCTAACCCCGGACGAGCCC [GTA G15C G18A T59C] | 0.09 |
| GGCTCGTTGGTCTAGGGGTATGATTCTCGCTTAGGGTGCGAGAGGTCCCGGGCTCGAATCCCGGACGAGCCC [GGA T53C] | 0.29 |
| GGCTCGTTTGTCTAGGCGTGTGATTCTCGCTTAGGGTGCGAGAGGTCCCGGGTTCTAATCCCGGACGAGCCC [GTA G9T G17C A20G] | 0.84 |
| GGCTCGTTGGTCTATGGGTATGATTCTCGCTTAGGGTGCGAGAGGTCCCGGGACCTAATCCCGGACGAGCCC [GTA G15T T53A T54C] | 0.33 |
| GGCTCGTTGGTCTGGGCGTATGATTCTCGCTTAGGGTGCGAGAGGTCCCGGGTCCGGATCCCGGACGAGCCC [GGG A14G G17C T54C] | 0.25 |
| GGCTCGTTGGTCTTGGTGGATGATTCTCGCTTAGGGTGCGAGAGGTCCCGGGTTCTAATCCCGGACGAGCCC [GTA A14T G17T T19G] | 0.25 |

| Variant | tRNA 5' processing efficiency |
| --- | --- |
| GGCTCGTTGGTCTAGGGATATGATTCTCGCTTAGGGTGCGAGAGGTCCCGGGGTATAAACCCGGACGAGCCC [GTA G18A T53G C55A T59A] | 0.33 |
| GGCTCGTTGGTCTATGAATATGATTCTCGCTTAGGGTGCGAGAGGTCCCGGGTTATAATCCCGGACGAGCCC [GTA G15T G17A G18A C55A] | 0.4 |
| GGCTCGTTGGTCTAGAGGGATGATTCTCGCTTAGGGTGCGAGAGGTCCCGGGTTCGAATCCCGGACGAGCCC [AGA T19G] | 0.33 |
| GGCTCGTTGGTCTAGAGGAATGATTCTCGCTTAGGGTGCGAGAGGTCCCGGGTTCGAATCCCGGACGAGCCC [AGA T19A] | 0.14 |
| GGCTCGTTGGTCTGGAGGTCTGATTCTCGCTTAGGGTGCGAGAGGTCCCGGGTTCGTATCCCGGACGAGCCC [AGT A14G A20C] | 0.33 |
| GGCTCGTTGGTCTATTGGTATGATTCTCGCTTAGGGTGCGAGAGGTCCCGGGTTATATTCCCGGACGAGCCC [TTA G15T C55A A58T] | 0.33 |
| GGCTCGTTGGTCTAGAGGTGTGATTCTCGCTTAGGGTGCGAGAGGTCCCGGGTTCTAACCCCGGACGAGCCC [ATA A20G T59C] | 0.2 |
| GGCTCGTTGGTCTAGATGTATGATTCTCGCTTAGGGTGCGAGAGGTCCCGGGTTCTAACCCCGGACGAGCCC [ATA G17T T59C] | 0.1 |
| GGCTCGTTGGTCTAGGCGTGTGATTCTCGCTTAGGGTGCGAGAGGTCCCGGGTTATAATCCCGGACGAGCCC [GTA G17C A20G C55A] | 0.25 |
| GGCTCGTTGGTCTGTGGGTATGATTCTCGCTTAGGGTGCGAGAGGTCCCGGGTTATATTCCCGGACGAGCCC [GTA A14G G15T C55A A58T] | 0.38 |
| GGCTCGTTAGTCTAGGAATATGATTCTCGCTTAGGGTGCGAGAGGTCCCGGGATCTAATCCCGGACGAGCCC [GTA G9A G17A G18A T53A] | 0.33 |
| GGCTCGTTGGTCTAGGTGTCTGATTCTCGCTTAGGGTGCGAGAGGTCCCGGGTTCTACTCCCGGACGAGCCC [GTA G17T A20C A58C] | 0.09 |
| GGCTCGTTGGTCTAGGGGTATGATTCTCGCTTAGGGTGCGAGAGGTCCCGGGTTCGGCTCCCGGACGAGCCC [GGG A58C] | 0.77 |
| GGCTCGTTGGTCTATGGGTATGATTCTCGCTTAGGGTGCGAGAGGTCCCGGGATCTAATCCCGGACGAGCCC [GTA G15T T53A] | 0.25 |
| GGCTCGTTCGTCTGGCGGTATGATTCTCGCTTAGGGTGCGAGAGGTCCCGGGTTCTATTCCCGGACGAGCCC [CTA G9C A14G A58T] | 0.33 |
| GGCTCGTTGGTCTAGGGGTTTGATTCTCGCTTAGGGTGCGAGAGGTCCCGGGTTCTAAGCCCGGACGAGCCC [GTA A20T T59G] | 0.33 |
| GGCTCGTTGGTCTTGGGGTATGATTCTCGCTTAGGGTGCGAGAGGTCCCGGGCTCTATTCCCGGACGAGCCC [GTA A14T T53C A58T] | 0.6 |
| GGCTCGTTGGTCTCGGGGTATGATTCTCGCTTAGGGTGCGAGAGGTCCCGGGTACTAACCCCGGACGAGCCC [GTA A14C T54A T59C] | 0.08 |

A section taken from the entries so far:

| Variant | tRNA 5' processing efficiency |
| --- | --- |
| GGCTCGTTGGTCTAAGGGTATGATTCTCGCTTAGGGTGCGAGAGGTCCCGGGTTATAGTCCCGGACGAGCCC [GTA G15A C55A A58G] | 0.25 |
| GGCTCGTTTGTCTTGGGGTATGATTCTCGCTTAGGGTGCGAGAGGTCCCGGGTTAGGATCCCGGACGAGCCC [GGG G9T A14T C55A] | 0.4 |
| GGCTCGTTGGTCTAGCGTTATGATTCTCGCTTAGGGTGCGAGAGGTCCCGGGCTTGGGTCCCGGACGAGCCC [CGG G18T T53C C55T A58G] | 0.25 |
